From publication PMC7513858
These are yes or no findings as the source states them, for the method shown. In cells and extracts the contact can be indirect. These calls come from enrichment with a bait or labelling near it, and not all partners need be listed.

The chains behind the UniProt entries cited, without tags or fusion partners. Residues count along the entry.
UniProt P53712, residues 21-798: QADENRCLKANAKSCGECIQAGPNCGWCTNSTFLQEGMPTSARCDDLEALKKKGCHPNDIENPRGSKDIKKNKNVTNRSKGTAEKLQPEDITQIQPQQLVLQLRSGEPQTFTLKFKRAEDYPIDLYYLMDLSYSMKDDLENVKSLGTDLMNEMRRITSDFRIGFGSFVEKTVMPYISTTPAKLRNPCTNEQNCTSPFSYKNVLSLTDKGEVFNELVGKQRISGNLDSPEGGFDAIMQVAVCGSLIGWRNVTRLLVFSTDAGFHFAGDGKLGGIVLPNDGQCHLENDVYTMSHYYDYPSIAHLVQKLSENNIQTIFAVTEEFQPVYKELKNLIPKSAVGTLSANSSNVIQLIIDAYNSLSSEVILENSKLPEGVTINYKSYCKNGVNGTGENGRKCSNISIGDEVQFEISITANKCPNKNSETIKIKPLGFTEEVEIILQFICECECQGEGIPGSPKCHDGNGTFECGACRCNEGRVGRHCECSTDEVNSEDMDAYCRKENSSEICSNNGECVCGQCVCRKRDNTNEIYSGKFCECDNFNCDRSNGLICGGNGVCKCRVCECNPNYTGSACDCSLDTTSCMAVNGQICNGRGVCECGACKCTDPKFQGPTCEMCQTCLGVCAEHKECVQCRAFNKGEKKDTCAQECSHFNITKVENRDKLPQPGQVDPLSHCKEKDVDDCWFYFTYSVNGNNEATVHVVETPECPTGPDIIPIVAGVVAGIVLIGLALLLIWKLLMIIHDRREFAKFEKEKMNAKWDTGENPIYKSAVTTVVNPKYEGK

Target: T1, Fibronectin type III domain-containing 4 (bovine (endogenous in bovine MDSCs; species of the cloned cDNA not stated)) (UniProt A6QPL2)
T1 sequence: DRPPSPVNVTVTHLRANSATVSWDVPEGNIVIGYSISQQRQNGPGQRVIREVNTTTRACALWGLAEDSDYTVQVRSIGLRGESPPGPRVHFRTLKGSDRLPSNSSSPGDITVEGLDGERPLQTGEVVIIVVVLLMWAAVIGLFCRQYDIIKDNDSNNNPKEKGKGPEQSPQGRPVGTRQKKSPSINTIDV
Assay: affinity purification with mass spectrometry; lysate (RIPA: 150 mM NaCl, 50 mM Tris, 1 mM EDTA) of FNDC4-overexpressing bovine MDSCs differentiated 5 days; immunoprecipitation overnight at 4°C, protein A-agarose; Coomassie band specific against the IgG group cut and sent for mass spectrometry

For “integrin β1 (from UniProt P53712 21-798) (receptor)”, the binding was “binds”.
